Measurements as given in PubChem BioAssay AID330 (DTP/NCI, 2004).
The list shows only some results of the screen, not a fair sample: it gathers tests that were run many times, whatever their T/C, doses with no T/C, and many T/C values between a quarter and a half above the control. Other doses and runs of a compound stand elsewhere. T/C is the treated group as % of the vehicle group. Some entries give survivors of the animals treated and no T/C: the source files T/C as zero there, which appears to mark a toxic dose or a test without result, not a measured value. Some survivor counts are full or nearly so, which does not show that the dose was tolerated: survival well below the control is almost never listed, so the zero probably covers shortened survival too. Survivors were counted at the toxicity check, usually on the fifth day, unless a day is given; later deaths do not show. Schedules are NCI's codes, taken here to give the interval after Q, in days (D) or hours (H), and the number of doses after X. Some doses were run more than once; the results are listed from low to high. Where survival is the endpoint, this PubChem deposit counts one and a half times the control or more as active, and values a quarter to a half above the control carry no call in these data; other NCI protocols may use other cut-offs. Some T/C values carry the count of animals alive at the toxicity check (mostly the fifth day); where none is given, no animal had died by that day.

Tested on: P388 leukemia ip, CD2F1 mice, survival T/C
Assay: NCI In Vivo Anticancer Drug Screen. Data for tumor model P388 Leukemia (intraperitoneal) in CD2F1 (CDF1) mice
Conditions: T/C endpoint: median survival time, higher T/C = longer survival
[1] = dose: 100.0 mg/kg/injection, schedule: Q04DX003 (ip), vehicle: saline
[2] = dose: 200.0 mg/kg/injection, schedule: Q04DX003 (ip), vehicle: saline
[3] = dose: 50.0 mg/kg/injection, schedule: Q01DX009 (ip), vehicle: saline
[4] = dose: 100.0 mg/kg/injection, schedule: Q01DX009 (ip), vehicle: saline
[5] = dose: 200.0 mg/kg/injection, schedule: Q01DX009 (ip), vehicle: saline
[6] = dose: 200.0 mg/kg/injection, schedule: Q01DX005 (ip), vehicle: saline with Tween-80
[7] = dose: 60.0 mg/kg/injection, schedule: Q01DX005 (ip), vehicle: saline with Tween-80
[8] = dose: 120.0 mg/kg/injection, schedule: Q01DX005 (ip), vehicle: saline with Tween-80
[9] = dose: 240.0 mg/kg/injection, schedule: Q01DX005 (ip), vehicle: saline with Tween-80
[10] = dose: 400.0 mg/kg/injection, schedule: Q01DX001 (ip), vehicle: saline with Tween-80
[11] = dose: 400.0 mg/kg/injection, schedule: Q04DX003 (ip), vehicle: saline with Tween-80

## COc1ccc(C(=O)CSC(=S)N2CCCCC2)cc1
dose: 200.0 mg/kg/injection, schedule: Q01DX009 (ip), vehicle: Klucel (hydroxypropylcellulose) (HPC)
  survivor count: 6 of 6

## CC1(C)COC(=O)C1=C(C#N)C#N
[1]
  survivor count: 0 of 6
[2]
  survivor count: 3 of 6
dose: 400.0 mg/kg/injection, schedule: Q04DX003 (ip), vehicle: saline
  survivor count: 3 of 6

## CSc1ccc2c(c1)C(N1CCN(C)CC1)Cc1ccccc1S2 (configuration not stated)
dose: 6.25 mg/kg/injection, schedule: Q01DX009 (ip), vehicle: saline
  T/C: 128 and 135 % of control [5 of 6 alive]
dose: 12.5 mg/kg/injection, schedule: Q01DX009 (ip), vehicle: saline
  survivor count: 6 of 6
dose: 25.0 mg/kg/injection, schedule: Q01DX009 (ip), vehicle: saline with Tween-80
  T/C: 141 % of control
dose: 25.0 mg/kg/injection, schedule: Q01DX009 (ip), vehicle: saline
  survivor count: 6 of 6
dose: 50.0 mg/kg/injection, schedule: Q01DX009 (ip), vehicle: saline with Tween-80
  survivor count: 3 of 6
[3]
  survivor count: 3 of 6 and 5 of 6
[4]
  survivor count: 3 of 6
[5]
  survivor count: 0 of 6

## CCCCCCCCCCCc1n(Cc2ccccc2)c2ccccc2[n+]1C
dose: 1.0 mg/kg/injection, schedule: Q01DX009 (ip), vehicle: saline sonified
  survivor count: 4 of 6

## CCCCCCCCCCCCCCCC[N+](C)(C)CCSCC(N)=O
dose: 25.0 mg/kg/injection, schedule: Q04DX003 (ip), vehicle: saline
  T/C: 138 % of control
[1]
  T/C: 138 % of control
  survivor count: 2 of 6
[2]
  survivor count: 0 of 6

## S=C(NCNC(=S)c1ccncc1)c1ccncc1
[6]
  T/C: 133 % of control
dose: 400.0 mg/kg/injection, schedule: Q01DX005 (ip), vehicle: saline with Tween-80
  T/C: 135 % of control

## CCOP(OCC)SSCn1nc2ccc3ccccc3n2c1=O
[7]
  survivor count: 6 of 6
[8]
  survivor count: 1 of 6
[9]
  survivor count: 0 of 6

## CCSCCC(NC(=O)CN)C(=O)O (configuration not stated)
[5]
  survivor count: 0 of 6

## O=C([Se]c1[se]c(=[Se])[se]c1[Se]C(=O)c1ccccc1)c1ccccc1
dose: 100.0 mg/kg/injection, schedule: Q01DX005 (ip), vehicle: saline with Tween-80
  survivor count: 6 of 6
[6]
  survivor count: 6 of 6

## CCCCCCCCCCCCCCCC(=O)N(CCC#N)C(C)(C)CCC(C)(C)N(CCC#N)C(=O)CCCCCCCCCCCCCCC
dose: 50.0 mg/kg/injection, schedule: Q04DX003 (ip), vehicle: Klucel (hydroxypropylcellulose) (HPC)
  survivor count: 6 of 6
dose: 100.0 mg/kg/injection, schedule: Q04DX003 (ip), vehicle: Klucel (hydroxypropylcellulose) (HPC)
  survivor count: 6 of 6

## CCc1cccc(CC)c1N1C(=O)COCC1=O
[3]
  survivor count: 6 of 6

## CN1Cc2cc3cc(c2O)C[N+](C)(C)Cc2c(Cl)c(c(Cl)c(c2Cl)C[N+](C)(C)C3)C1
dose: 100.0 mg/kg/injection, schedule: Q01DX001 (ip), vehicle: saline
  survivor count: 0 of 6
dose: 200.0 mg/kg/injection, schedule: Q01DX001 (ip), vehicle: saline
  survivor count: 0 of 6
dose: 400.0 mg/kg/injection, schedule: Q01DX001 (ip), vehicle: saline
  survivor count: 0 of 6

## CCO/C=C1/N=C(c2ccc(OC)c(OC)c2)OC1=O
[8]
  survivor count: 6 of 6
[9]
  survivor count: 1 of 6

## Cc1ccc(C(=O)C(C#N)=Nc2ccc(N(C)C)cc2)cc1
dose: 25.0 mg/kg/injection, schedule: Q01DX005 (ip), vehicle: Klucel (hydroxypropylcellulose) (HPC)
  survivor count: 6 of 6

## CNC(=O)OCc1c(-c2ccccc2)c(-c2ccccc2)n(-c2ccc(OC)cc2)c1COC(=O)NC
dose: 200.0 mg/kg/injection, schedule: Q01DX009 (ip), vehicle: distilled water + Tween-80
  T/C: 127 and 135 % of control
dose: 400.0 mg/kg/injection, schedule: Q01DX009 (ip), vehicle: distilled water + Tween-80
  T/C: 136 % of control

## COc1ccc2c(NCCCCCCCCNc3c4ccc(OC)cc4nc4ccc(Cl)cc34)c3cc(Cl)ccc3nc2c1
dose: 10.0 mg/kg/injection, schedule: Q01DX009 (ip), vehicle: other
  survivor count: 2 of 6
dose: 20.0 mg/kg/injection, schedule: Q01DX009 (ip), vehicle: other
  survivor count: 3 of 6

## CN1C(=O)C2CCC(=O)N2C(=S)N(C)C1=S (configuration not stated)
[9]
  survivor count: 6 of 6

## c1ccc2c[n+](CCCCCCCCCC[n+]3ccc4ccccc4c3)ccc2c1
dose: 10.0 mg/kg/injection, schedule: Q01DX009 (ip), vehicle: saline
  survivor count: 6 of 6

## CN=C(C)Nc1ccccc1OC
[4]
  survivor count: 0 of 6
[5]
  survivor count: 0 of 6

## Cc1nn(C)c(=O)c(N)c1-c1cc(-c2ccc(Cl)cc2)n[nH]1
[9]
  survivor count: 0 of 6

## Nc1nc(N)c2nc(CNc3ccc(Cl)c(Cl)c3)cnc2n1
[7]
  survivor count: 6 of 6
[8]
  survivor count: 6 of 6
[9]
  survivor count: 6 of 6

## CCCOC(=O)Nc1ccc2c(c1)c1c3[nH]c(=O)c4cccn4c3ccc1n2CC
[10]
  survivor count: 4 of 5

## O=C(CC(=O)C(F)(F)F)c1csc2ccccc12
dose: 100.0 mg/kg/injection, schedule: Q04DX003 (ip), vehicle: saline with Tween-80
  survivor count: 6 of 6
dose: 200.0 mg/kg/injection, schedule: Q04DX003 (ip), vehicle: saline with Tween-80
  survivor count: 3 of 6
[11]
  survivor count: 3 of 6

## C1=C(c2ccccc2)CS1
dose: 200.0 mg/kg/injection, schedule: Q01DX001 (ip), vehicle: saline with Tween-80
  survivor count: 0 of 6
[10]
  survivor count: 0 of 6

## Cc1ccc(C)c2c(Nc3ccc4c(c3)OCO4)c(C(=O)O)cnc12
dose: 240.0 mg/kg/injection, schedule: Q01DX005 (ip), vehicle: Klucel + Tween-80
  survivor count: 6 of 6

## COc1ccc(OC)c2c(NCCNCCO)cc(NCCNCCO)nc12
dose: 60.0 mg/kg/injection, schedule: Q01DX005 (ip), vehicle: saline
  survivor count: 3 of 6
dose: 120.0 mg/kg/injection, schedule: Q01DX005 (ip), vehicle: saline
  survivor count: 0 of 6
dose: 240.0 mg/kg/injection, schedule: Q01DX005 (ip), vehicle: saline
  survivor count: 0 of 6

## CN1CCC(c2ccccc2)(C(O)(c2ccccc2)c2ccccc2)CC1
[6]
  survivor count: 2 of 6

## COc1cc2c(C)nc3c4cc5c(cc4ccc3c2cc1OC)OCO5
dose: 100.0 mg/kg/injection, schedule: Q01DX009 (ip), vehicle: water
  survivor count: 6 of 6
dose: 200.0 mg/kg/injection, schedule: Q01DX009 (ip), vehicle: water
  survivor count: 6 of 6
dose: 400.0 mg/kg/injection, schedule: Q01DX009 (ip), vehicle: water
  survivor count: 4 of 6

## NCCNC[Si](c1ccccc1)(c1ccccc1)c1ccccc1
[7]
  survivor count: 3 of 6 and 5 of 6
[8]
  survivor count: 0 of 6
[9]
  survivor count: 0 of 6

## CCCCCSc1ncnc2nc[nH]c12
[11]
  survivor count: 5 of 6

## Cc1ccc(C(C)(N=[N+]=[N-])c2ccccc2)cc1C (configuration not stated)
dose: 200.0 mg/kg/injection, schedule: Q01DX009 (ip), vehicle: saline with Tween-80
  survivor count: 4 of 6

## N=C(N)c1ccc(-c2ccc(-c3ccc(C(=N)N)cc3)s2)cc1
dose: 50.0 mg/kg/injection, schedule: Q04DX003 (ip), vehicle: suspension in saline
  T/C: 130 % of control
dose: 100.0 mg/kg/injection, schedule: Q04DX003 (ip), vehicle: suspension in saline
  T/C: 127 % of control [5 of 6 alive]
dose: 200.0 mg/kg/injection, schedule: Q04DX003 (ip), vehicle: suspension in saline
  survivor count: 2 of 6
dose: 400.0 mg/kg/injection, schedule: Q04DX003 (ip), vehicle: suspension in saline
  survivor count: 2 of 6

## NNc1nncc2ccccc12
dose: 50.0 mg/kg/injection, schedule: Q04DX003 (ip), vehicle: saline
  survivor count: 6 of 6
[2]
  survivor count: 0 of 6

## COC(=O)c1ccccc1N1C(=O)C=CC1=O
dose: 25.0 mg/kg/injection, schedule: Q04DX003 (ip), vehicle: saline with Tween-80
  survivor count: 1 of 6
